Measured values from the supplement of paper PMC10849652.
This is one part of the list.

Chains of the proteins cited; added tags and fusions are not shown. Lines headed by an entry give the natural chain unless they say otherwise; changes in a name come on top.
UniProt Q1ED39: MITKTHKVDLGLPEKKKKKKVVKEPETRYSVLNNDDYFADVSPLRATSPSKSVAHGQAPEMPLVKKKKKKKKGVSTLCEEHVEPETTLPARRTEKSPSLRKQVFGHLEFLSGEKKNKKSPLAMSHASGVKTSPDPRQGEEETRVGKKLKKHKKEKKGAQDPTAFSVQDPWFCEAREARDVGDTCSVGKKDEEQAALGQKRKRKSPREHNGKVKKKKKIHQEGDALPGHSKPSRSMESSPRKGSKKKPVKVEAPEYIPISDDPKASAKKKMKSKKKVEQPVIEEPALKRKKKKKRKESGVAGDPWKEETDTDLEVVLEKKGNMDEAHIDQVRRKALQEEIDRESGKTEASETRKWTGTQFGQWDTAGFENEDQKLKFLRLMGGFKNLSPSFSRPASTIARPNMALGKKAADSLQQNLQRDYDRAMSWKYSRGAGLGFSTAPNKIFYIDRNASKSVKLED
UniProt Q9H9P8: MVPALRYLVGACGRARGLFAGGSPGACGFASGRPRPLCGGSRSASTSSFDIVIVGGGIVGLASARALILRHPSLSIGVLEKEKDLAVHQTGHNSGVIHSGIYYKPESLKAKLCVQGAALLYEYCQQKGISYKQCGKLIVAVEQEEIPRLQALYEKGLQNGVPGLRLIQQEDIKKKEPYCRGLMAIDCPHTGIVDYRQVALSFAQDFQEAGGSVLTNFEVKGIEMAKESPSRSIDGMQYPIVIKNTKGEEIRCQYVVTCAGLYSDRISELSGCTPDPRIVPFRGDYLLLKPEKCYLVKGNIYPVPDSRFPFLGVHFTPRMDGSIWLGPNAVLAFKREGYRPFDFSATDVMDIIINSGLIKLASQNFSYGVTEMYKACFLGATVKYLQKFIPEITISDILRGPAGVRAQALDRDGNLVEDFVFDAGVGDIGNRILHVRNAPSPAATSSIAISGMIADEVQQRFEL
UniProt Q8IYS2: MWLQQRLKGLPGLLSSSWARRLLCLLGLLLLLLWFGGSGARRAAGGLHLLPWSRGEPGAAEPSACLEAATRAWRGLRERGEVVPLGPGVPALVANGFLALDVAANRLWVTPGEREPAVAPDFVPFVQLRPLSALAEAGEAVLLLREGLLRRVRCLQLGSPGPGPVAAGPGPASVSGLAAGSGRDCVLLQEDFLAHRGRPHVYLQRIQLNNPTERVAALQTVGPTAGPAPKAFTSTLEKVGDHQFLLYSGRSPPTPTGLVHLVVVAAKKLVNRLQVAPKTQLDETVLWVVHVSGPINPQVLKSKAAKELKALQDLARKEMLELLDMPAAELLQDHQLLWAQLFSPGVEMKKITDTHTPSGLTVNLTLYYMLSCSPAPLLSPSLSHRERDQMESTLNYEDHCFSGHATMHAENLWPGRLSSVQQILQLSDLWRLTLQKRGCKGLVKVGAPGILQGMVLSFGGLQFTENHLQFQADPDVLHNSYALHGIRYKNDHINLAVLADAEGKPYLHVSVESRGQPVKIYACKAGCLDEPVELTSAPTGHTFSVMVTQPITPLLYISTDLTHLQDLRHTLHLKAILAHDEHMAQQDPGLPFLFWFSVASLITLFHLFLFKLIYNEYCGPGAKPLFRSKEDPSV
UniProt Q9UN81: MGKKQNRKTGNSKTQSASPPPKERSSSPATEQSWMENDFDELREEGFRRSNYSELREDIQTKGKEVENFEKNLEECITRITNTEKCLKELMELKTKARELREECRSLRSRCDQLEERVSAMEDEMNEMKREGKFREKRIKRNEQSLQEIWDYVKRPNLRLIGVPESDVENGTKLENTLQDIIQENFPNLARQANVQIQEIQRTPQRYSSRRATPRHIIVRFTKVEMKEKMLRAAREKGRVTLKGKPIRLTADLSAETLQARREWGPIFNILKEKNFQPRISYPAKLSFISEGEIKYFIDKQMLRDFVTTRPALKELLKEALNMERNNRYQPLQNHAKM
UniProt Q9Y448: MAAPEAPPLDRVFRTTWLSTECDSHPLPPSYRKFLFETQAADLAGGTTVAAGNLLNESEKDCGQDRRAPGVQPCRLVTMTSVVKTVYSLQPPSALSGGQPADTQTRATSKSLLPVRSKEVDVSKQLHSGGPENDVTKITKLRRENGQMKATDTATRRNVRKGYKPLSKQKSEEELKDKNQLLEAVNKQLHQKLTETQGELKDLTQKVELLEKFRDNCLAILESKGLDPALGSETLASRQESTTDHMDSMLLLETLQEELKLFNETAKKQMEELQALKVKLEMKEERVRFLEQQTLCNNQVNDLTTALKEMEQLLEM
UniProt O95239: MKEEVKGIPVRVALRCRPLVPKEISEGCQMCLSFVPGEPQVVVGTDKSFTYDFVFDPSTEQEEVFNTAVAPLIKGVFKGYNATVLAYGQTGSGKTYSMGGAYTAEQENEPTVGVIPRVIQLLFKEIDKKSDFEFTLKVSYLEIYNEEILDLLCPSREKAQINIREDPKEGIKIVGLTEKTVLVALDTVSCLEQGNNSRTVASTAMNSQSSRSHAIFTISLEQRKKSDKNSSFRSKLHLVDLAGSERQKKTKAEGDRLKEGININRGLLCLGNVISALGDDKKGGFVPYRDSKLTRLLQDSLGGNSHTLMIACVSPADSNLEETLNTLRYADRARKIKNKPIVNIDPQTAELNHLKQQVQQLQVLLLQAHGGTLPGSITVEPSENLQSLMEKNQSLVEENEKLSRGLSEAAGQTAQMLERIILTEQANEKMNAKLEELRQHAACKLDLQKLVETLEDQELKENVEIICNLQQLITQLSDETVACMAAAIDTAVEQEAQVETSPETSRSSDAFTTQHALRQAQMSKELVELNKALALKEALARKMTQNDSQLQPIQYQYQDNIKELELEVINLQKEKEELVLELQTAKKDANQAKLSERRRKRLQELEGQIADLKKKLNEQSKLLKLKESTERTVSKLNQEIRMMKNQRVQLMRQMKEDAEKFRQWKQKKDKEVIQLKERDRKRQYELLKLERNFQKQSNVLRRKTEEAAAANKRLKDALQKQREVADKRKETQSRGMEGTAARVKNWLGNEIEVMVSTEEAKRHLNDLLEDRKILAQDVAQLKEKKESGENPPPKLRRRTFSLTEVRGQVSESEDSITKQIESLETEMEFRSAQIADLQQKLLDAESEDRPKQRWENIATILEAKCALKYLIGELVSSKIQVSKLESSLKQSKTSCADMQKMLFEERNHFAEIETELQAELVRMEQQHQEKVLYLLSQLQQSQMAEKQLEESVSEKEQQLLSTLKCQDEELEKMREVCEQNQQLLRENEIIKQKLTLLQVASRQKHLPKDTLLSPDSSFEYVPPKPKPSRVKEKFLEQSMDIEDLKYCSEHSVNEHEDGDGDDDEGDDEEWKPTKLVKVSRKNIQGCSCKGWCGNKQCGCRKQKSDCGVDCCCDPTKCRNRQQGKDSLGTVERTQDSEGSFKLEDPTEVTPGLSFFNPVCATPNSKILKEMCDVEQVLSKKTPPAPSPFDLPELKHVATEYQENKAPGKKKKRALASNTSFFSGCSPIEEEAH
UniProt Q96Q89: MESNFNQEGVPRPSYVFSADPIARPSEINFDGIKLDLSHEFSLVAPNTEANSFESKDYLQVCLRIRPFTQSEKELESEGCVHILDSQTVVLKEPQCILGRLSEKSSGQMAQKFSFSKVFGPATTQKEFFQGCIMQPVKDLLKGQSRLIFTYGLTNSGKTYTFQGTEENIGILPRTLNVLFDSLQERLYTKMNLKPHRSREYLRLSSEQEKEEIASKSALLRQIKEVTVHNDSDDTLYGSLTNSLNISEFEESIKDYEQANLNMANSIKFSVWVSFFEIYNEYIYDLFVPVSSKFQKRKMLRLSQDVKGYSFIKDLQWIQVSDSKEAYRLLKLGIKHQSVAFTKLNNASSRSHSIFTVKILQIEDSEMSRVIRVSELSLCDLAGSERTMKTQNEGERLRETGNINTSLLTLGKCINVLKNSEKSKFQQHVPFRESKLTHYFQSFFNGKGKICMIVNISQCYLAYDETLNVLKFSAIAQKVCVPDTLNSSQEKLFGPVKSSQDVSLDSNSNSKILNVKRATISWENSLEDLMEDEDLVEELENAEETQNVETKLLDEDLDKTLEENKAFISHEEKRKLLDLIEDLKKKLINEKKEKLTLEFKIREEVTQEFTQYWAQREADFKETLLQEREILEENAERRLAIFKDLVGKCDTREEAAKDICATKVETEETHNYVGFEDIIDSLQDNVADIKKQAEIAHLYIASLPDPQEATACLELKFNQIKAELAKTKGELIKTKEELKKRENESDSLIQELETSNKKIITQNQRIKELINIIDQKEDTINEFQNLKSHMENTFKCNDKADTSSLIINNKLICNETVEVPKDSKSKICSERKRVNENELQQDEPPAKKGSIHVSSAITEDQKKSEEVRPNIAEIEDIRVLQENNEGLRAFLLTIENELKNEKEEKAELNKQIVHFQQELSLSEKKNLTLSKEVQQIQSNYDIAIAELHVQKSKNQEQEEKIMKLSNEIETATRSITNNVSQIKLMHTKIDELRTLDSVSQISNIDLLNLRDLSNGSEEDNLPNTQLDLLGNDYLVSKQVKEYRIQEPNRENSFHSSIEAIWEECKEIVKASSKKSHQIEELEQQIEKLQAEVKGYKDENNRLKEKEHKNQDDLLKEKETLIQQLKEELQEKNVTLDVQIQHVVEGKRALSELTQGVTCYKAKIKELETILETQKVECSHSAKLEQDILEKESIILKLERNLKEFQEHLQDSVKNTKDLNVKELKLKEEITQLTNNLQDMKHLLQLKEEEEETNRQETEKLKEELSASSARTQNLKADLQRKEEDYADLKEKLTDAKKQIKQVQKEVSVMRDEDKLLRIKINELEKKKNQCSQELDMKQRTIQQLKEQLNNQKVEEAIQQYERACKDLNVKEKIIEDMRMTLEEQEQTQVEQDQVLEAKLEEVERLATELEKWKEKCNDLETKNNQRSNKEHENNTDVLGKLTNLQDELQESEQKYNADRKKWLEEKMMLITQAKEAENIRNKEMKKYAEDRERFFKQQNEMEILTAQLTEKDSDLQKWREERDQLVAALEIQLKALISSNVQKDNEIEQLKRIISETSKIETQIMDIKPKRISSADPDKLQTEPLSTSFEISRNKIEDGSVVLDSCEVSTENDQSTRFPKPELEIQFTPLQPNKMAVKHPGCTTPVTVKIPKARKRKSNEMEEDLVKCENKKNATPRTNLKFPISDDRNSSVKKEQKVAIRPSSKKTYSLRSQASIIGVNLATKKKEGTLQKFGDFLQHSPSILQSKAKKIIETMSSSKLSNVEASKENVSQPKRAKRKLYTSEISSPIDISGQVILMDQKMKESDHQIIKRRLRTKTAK
UniProt Q9BQ90: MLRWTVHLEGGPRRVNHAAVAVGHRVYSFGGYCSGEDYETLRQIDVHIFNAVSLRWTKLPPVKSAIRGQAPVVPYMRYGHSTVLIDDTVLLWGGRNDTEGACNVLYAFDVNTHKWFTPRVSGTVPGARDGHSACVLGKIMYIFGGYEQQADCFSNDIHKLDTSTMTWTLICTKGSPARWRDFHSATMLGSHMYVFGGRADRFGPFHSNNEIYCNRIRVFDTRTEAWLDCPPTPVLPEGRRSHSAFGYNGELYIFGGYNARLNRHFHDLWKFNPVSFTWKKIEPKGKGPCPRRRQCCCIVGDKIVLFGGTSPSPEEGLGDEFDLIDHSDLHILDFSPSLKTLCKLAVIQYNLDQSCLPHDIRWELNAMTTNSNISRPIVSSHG
UniProt P50053: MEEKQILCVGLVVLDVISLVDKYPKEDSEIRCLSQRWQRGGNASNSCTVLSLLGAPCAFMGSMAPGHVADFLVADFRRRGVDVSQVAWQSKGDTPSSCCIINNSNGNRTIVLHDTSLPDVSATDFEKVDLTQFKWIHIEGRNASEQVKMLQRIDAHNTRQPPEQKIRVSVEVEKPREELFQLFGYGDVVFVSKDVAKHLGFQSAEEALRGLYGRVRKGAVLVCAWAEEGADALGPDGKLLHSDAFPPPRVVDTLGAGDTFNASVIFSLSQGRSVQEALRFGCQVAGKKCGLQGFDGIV
UniProt Q07866: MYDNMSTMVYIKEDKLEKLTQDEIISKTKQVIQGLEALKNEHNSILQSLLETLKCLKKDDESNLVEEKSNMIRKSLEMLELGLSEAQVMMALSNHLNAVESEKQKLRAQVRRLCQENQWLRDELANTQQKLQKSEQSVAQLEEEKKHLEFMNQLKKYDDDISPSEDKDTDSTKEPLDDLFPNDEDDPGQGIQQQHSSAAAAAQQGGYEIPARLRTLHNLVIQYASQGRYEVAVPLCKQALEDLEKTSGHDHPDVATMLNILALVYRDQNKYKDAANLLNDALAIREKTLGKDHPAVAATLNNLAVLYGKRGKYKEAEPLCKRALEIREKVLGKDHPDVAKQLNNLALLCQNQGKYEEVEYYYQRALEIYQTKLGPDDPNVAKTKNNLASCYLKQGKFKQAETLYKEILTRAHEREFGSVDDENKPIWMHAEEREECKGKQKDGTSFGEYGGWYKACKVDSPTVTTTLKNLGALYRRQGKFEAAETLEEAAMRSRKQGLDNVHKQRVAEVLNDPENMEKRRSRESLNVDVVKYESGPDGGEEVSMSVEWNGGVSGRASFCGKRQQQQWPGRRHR

Key:
Assay in all cases: log2 fold change, soluble protein after heating vs DMSO (PISA); higher = thermal stabilisation; K562 lysate, 10 uM; active = over 0.2 and 3.5 SD of the protein, either way, in both replicates (recomputed)
[1] = compound: NCC(=O)Nc1ccc(-n2nc(C(F)(F)F)cc2-c2ccc3c(ccc4ccccc43)c2)cc1
Procedure, shortened: (§1)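 Soluble protein was defined as the supernatant remaining after 21,000xg for 90 min, following pooling of heated aliquots and adjustment to 0.5% NP-40 at 4°C. Before that, crude K562 extract at 1 mg/mL protein in PBS pH 7.4 with 1 mM MgCl2 was treated with 10 μM compound for 30 min and heated for 3 min across 48°C-58°C. Quantification used TMTpro 16plex LC-MS/MS with channel sums equalised, and values are log-two fold changes in thermal stability relative to solvent controls from duplicates.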

[2] = compound: O=C(CCCCCCC(=O)Nc1ccccc1)NO [vorinostat]
Procedure, shortened: as §1

[3] = compound: O=C(O)c1ccc2c(c1)nc(Nc1cccc(Cl)c1)c1ccncc12 [silmitasertib]
Procedure, shortened: as §1

[4] = compound: O=C1NC(=O)C(c2cnc3ccccn23)=C1c1cn2c3c(cc(F)cc13)CN(C(=O)N1CCCCC1)CC2
Procedure, shortened: as §1

[5] = compound: c1cn2cc(-c3ccc4cn[nH]c4c3)nc(Nc3ccc(N4CCOCC4)cc3)c2n1 [entospletinib]
Procedure, shortened: as §1

Row | Target | log2 fold change [1] | log2 fold change [2] | log2 fold change [3] | log2 fold change [4] | log2 fold change [5]
1 | KPTN (UniProt Q9Y664) | inactive: 0 | inactive: -0.03 | inactive: 0 | inactive: 0.008 | inactive: -0.008
2 | KLHDC2 (UniProt Q9Y2U9) | inactive: -0.071 | inactive: 0.145 | inactive: -0.039 | inactive: 0.181 | 
3 | KIAA1586 (UniProt Q9HCI6) | inactive: 0.085 | inactive: -0.129 | inactive: -0.035 |  | 
4 | KRAS (UniProt P01116) | inactive: 0.033 | inactive: 0.129 | inactive: 0.022 | inactive: -0.072 | inactive: -0.021
5 | KLHL12 isoform 2 (UniProt Q53G59) | inactive: 0.135 | inactive: -0.108 | inactive: 0.024 | inactive: 0.003 | 
6 | KTN1 (UniProt Q86UP2) | inactive: 0.004 | inactive: 0.013 | inactive: -0.001 | inactive: 0.004 | inactive: -0.03
7 | KIAA0513 (UniProt O60268) | inactive: 0.007 | inactive: -0.032 | inactive: 0.022 | inactive: 0.001 | inactive: 0
8 | KNOP1 (UniProt Q1ED39) | inactive: 0.019 | inactive: 0.063 | inactive: 0.005 | inactive: 0.03 | inactive: -0.035
9 | KIN (UniProt O60870) | inactive: -0.045 | inactive: -0.116 | inactive: 0.027 | inactive: 0.005 | inactive: 0.033
10 | KIAA1324L (UniProt A8MWY0) | inactive: -0.013 | inactive: 0.08 | inactive: -0.004 | inactive: 0.036 | inactive: -0.017
11 | LARP1 (UniProt Q6PKG0) | inactive: -0.007 | inactive: -0.003 | inactive: -0.006 | inactive: -0.013 | inactive: 0.023
12 | LANCL2 (UniProt Q9NS86) | inactive: 0.001 | inactive: -0.029 | inactive: -0.018 | inactive: -0.058 | inactive: 0.008
13 | KIZ (UniProt Q2M2Z5) | inactive: 0.324 | inactive: -0.026 | inactive: -0.112 | inactive: 0.028 | inactive: 0.043
14 | LARP7 isoform 3 (UniProt Q4G0J3) | inactive: 0.039 | inactive: 0.071 | inactive: 0.02 | inactive: -0.009 | inactive: 0.014
15 | LAP3 (UniProt P28838) | inactive: 0.048 | inactive: 0.082 | inactive: -0.104 | inactive: 0.104 | inactive: -0.008
16 | KXD1 (UniProt Q9BQD3) | inactive: 0.008 | inactive: 0.026 | inactive: -0.019 | inactive: 0.068 | inactive: 0.016
17 | L2HGDH (UniProt Q9H9P8) | inactive: 0.012 | inactive: 0.233 | inactive: -0.019 | inactive: -0.012 | inactive: -0.02
18 | LARP4B (UniProt Q92615) | inactive: 0.019 | active: -0.306 | inactive: 0.032 | inactive: -0.028 | inactive: -0.011
19 | KTI12 (UniProt Q96EK9) | inactive: -0.016 | inactive: -0.119 | inactive: 0.076 | inactive: 0.049 | inactive: -0.057
20 | KIF4B (UniProt Q2VIQ3) | inactive: -0.035 | active: -0.506 | inactive: 0.027 | inactive: -0.02 | inactive: 0
21 | KIFBP (UniProt Q96EK5) | inactive: 0.019 | inactive: -0.176 | inactive: 0.104 | inactive: -0.049 | inactive: -0.009
22 | KIAA2013 (UniProt Q8IYS2) | inactive: 0.022 | inactive: 0.138 | inactive: -0.072 | inactive: 0.071 | inactive: -0.02
23 | KIF2C (UniProt Q99661) | inactive: 0.003 | active: -0.464 | inactive: 0.028 | inactive: 0.012 | inactive: 0.024
24 | KLC4 isoform 3 (UniProt Q9NSK0) | inactive: 0.01 | active: -0.557 | inactive: 0.009 | inactive: -0.041 | inactive: -0.006
25 | L1RE1 (UniProt Q9UN81) | inactive: 0.052 | inactive: 0.138 | inactive: 0.006 | inactive: 0.054 | inactive: 0.058
26 | LARP1B, A0A3B3ISF0 | inactive: 0.084 | inactive: 0.016 | inactive: 0.005 | inactive: 0.015 | inactive: -0.025
27 | KHDRBS1 (UniProt Q07666) | inactive: 0.005 | active: -0.583 | inactive: 0.018 | inactive: 0.016 | inactive: 0.008

Reprinted at random: two entries already listed.
Row | Target | log2 fold change [1] | log2 fold change [2] | log2 fold change [3] | log2 fold change [4] | log2 fold change [5]
14 | LARP7 isoform 3 (UniProt Q4G0J3) | inactive: 0.039 | inactive: 0.071 | inactive: 0.02 | inactive: -0.009 | inactive: 0.014
2 | KLHDC2 (UniProt Q9Y2U9) | inactive: -0.071 | inactive: 0.145 | inactive: -0.039 | inactive: 0.181 | 

Remaining list, next part:

Row | Target | log2 fold change [1] | log2 fold change [2] | log2 fold change [3] | log2 fold change [4] | log2 fold change [5]
28 | KMT2C isoform 3 (UniProt Q8NEZ4) | inactive: -0.029 | inactive: 0.137 | inactive: -0.037 | inactive: -0.143 | inactive: 0.043
29 | KNSTRN (UniProt Q9Y448) | inactive: -0.018 | inactive: -0.054 | inactive: 0 | inactive: 0.057 | inactive: 0.02
30 | KIF22 (UniProt Q14807) | inactive: 0.069 | inactive: 0.158 | inactive: -0.128 | inactive: 0.156 | inactive: 0.001
31 | KHSRP (UniProt Q92945) | inactive: -0.016 | inactive: 0.028 | inactive: -0.003 | inactive: -0.01 | inactive: 0.015
32 | KNTC1 (UniProt P50748) | inactive: 0.001 | inactive: -0.225 | inactive: 0.029 | inactive: -0.022 | inactive: 0.03
33 | KIF4A (UniProt O95239) | inactive: -0.017 | active: -0.445 | inactive: 0.017 | inactive: 0.013 | inactive: 0.001
34 | KPNA6 (UniProt O60684) | inactive: -0.065 | inactive: -0.182 | inactive: 0.068 | inactive: -0.005 | inactive: -0.021
35 | KIF20B isoform 2 (UniProt Q96Q89) | inactive: 0.025 | inactive: 0.058 | inactive: 0.349 | inactive: -0.119 | inactive: -0.071
36 | KLHL11 (UniProt Q9NVR0) | inactive: -0.003 | inactive: -0.132 | inactive: 0.009 | inactive: 0.022 | inactive: -0.052
37 | KYNU (UniProt Q16719) | inactive: -0.023 | inactive: 0.14 | inactive: 0 | inactive: 0.112 | inactive: 0.006
38 | KLHL18 (UniProt O94889) | inactive: 0.027 | inactive: -0.121 | inactive: -0.009 | inactive: -0.144 | inactive: -0.051
39 | KIAA1143 (UniProt Q96AT1) | inactive: -0.035 | inactive: 0.146 | inactive: -0.05 | inactive: -0.034 | inactive: -0.016
40 | KIF23 isoform 2 (UniProt Q02241) | inactive: -0.002 | inactive: -0.111 | inactive: -0.015 | inactive: -0.047 | inactive: 0.047
41 | KPNA3 (UniProt O00505) | inactive: 0.048 | inactive: 0.008 | inactive: -0.05 | inactive: 0.001 | inactive: -0.016
42 | LAMB1 (UniProt P07942) | inactive: -0.007 | inactive: 0.086 | inactive: -0.016 | inactive: -0.018 | inactive: -0.014
43 | KLHDC3 (UniProt Q9BQ90) | inactive: -0.098 | inactive: -0.026 | inactive: 0.116 | inactive: 0.013 | inactive: 0.103
44 | KIAA0100 (UniProt Q14667) | inactive: 0.05 | inactive: -0.231 | inactive: -0.03 | inactive: -0.026 | inactive: 0.075
45 | KEL (UniProt P23276) | inactive: -0.046 | inactive: 0.162 | inactive: -0.002 | inactive: 0.017 | inactive: 0.015
46 | KIF3B (UniProt O15066) | inactive: 0.074 | inactive: 0.005 | inactive: -0.005 | inactive: 0.025 | inactive: -0.119
47 | KMT2E (UniProt Q8IZD2) | inactive: 0.097 | inactive: -0.139 | inactive: -0.053 | inactive: 0.05 | inactive: -0.036
48 | LARP4 isoform 4 (UniProt Q71RC2) | inactive: 0.013 | inactive: -0.1 | inactive: 0.02 | inactive: 0.035 | inactive: 0.002
49 | LAMTOR4 (UniProt Q0VGL1) | inactive: 0.027 | inactive: 0.08 | inactive: -0.022 | inactive: -0.033 | inactive: 0.02
50 | KDM4A (UniProt O75164) | inactive: 0.014 | inactive: -0.154 | inactive: 0.082 | inactive: -0.026 | inactive: -0.031
51 | KHK isoform 2 (UniProt P50053) | inactive: 0.035 | inactive: 0.045 | inactive: 0.018 | inactive: -0.053 | inactive: 0.033
52 | LAMTOR2 (UniProt Q9Y2Q5) | inactive: -0.137 | inactive: 0.157 | inactive: 0.005 | inactive: 0 | inactive: 0.002
53 | KLC1 isoform 6 (UniProt Q07866) | inactive: 0.024 | active: -0.231 | inactive: -0.004 | inactive: -0.034 | inactive: 0.013

Shown as tab-separated lines: entries from further up
Row	Target	log2 fold change [1]	log2 fold change [2]	log2 fold change [3]	log2 fold change [4]	log2 fold change [5]
21	KIFBP (UniProt Q96EK5)	inactive: 0.019	inactive: -0.176	inactive: 0.104	inactive: -0.049	inactive: -0.009
22	KIAA2013 (UniProt Q8IYS2)	inactive: 0.022	inactive: 0.138	inactive: -0.072	inactive: 0.071	inactive: -0.02
23	KIF2C (UniProt Q99661)	inactive: 0.003	active: -0.464	inactive: 0.028	inactive: 0.012	inactive: 0.024
